Values are animals surviving of animals treated; these mice carried no tumour. Counts of survivors are from the toxicity check (mostly the fifth day) where no day follows; animals may have died later. Schedules are NCI's codes, read here as Q, the interval in days (D) or hours (H), X, the number of doses.
Tested on: B6D2F1 mice, nontumored toxicity test, survival
Test: NCI In Vivo Anticancer Drug Screen. Data for tumor model Nontumored Animals (Toxicity Test) in B6D2F1 (BDF1) mice

Measured: survivor count

O=c1[nH]c(=O)n([C@H]2CCCO2)cc1F
5 of 5: dose: 400.0 mg/kg/injection, schedule: Q10DX002 (sc), vehicle: clinical formulation | dose: 600.0 mg/kg/injection, schedule: Q01DX001 (ip), vehicle: Klucel (hydroxypropylcellulose) (HPC) | dose: 600.0 mg/kg/injection, schedule: Q01DX001 (ip), vehicle: other
4 of 6: dose: 1000.0 mg/kg/injection, schedule: Q01DX001 (ip), vehicle: other | dose: 1400.0 mg/kg/injection, schedule: Q01DX001 (ip), vehicle: Klucel (hydroxypropylcellulose) (HPC)
6 of 6: dose: 28.1 mg/kg/injection, schedule: Q01DX032 (other), vehicle: water | dose: 35.2 mg/kg/injection, schedule: Q01DX032 (other), vehicle: water | dose: 38.9 mg/kg/injection, schedule: Q01DX012 (sc), vehicle: clinical formulation | dose: 44.0 mg/kg/injection, schedule: Q01DX016 (other), vehicle: water | dose: 44.0 mg/kg/injection, schedule: Q01DX032 (other), vehicle: water | dose: 55.0 mg/kg/injection, schedule: Q01DX012 (other), vehicle: water | dose: 55.0 mg/kg/injection, schedule: Q01DX016 (other), vehicle: water | dose: 55.0 mg/kg/injection, schedule: Q01DX032 (other), vehicle: water | dose: 68.7 mg/kg/injection, schedule: Q01DX008 (other), vehicle: water | dose: 68.7 mg/kg/injection, schedule: Q01DX012 (other), vehicle: water | dose: 68.7 mg/kg/injection, schedule: Q01DX016 (other), vehicle: water | dose: 68.7 mg/kg/injection, schedule: Q01DX032 (other), vehicle: water | dose: 85.9 mg/kg/injection, schedule: Q01DX006 (other), vehicle: water | dose: 85.9 mg/kg/injection, schedule: Q01DX008 (other), vehicle: water | dose: 85.9 mg/kg/injection, schedule: Q01DX012 (other), vehicle: water | dose: 85.9 mg/kg/injection, schedule: Q01DX016 (other), vehicle: water | dose: 85.9 mg/kg/injection, schedule: Q01DX032 (other), vehicle: water | dose: 100.0 mg/kg/injection, schedule: Q01DX001 (ip), vehicle: other | dose: 105.0 mg/kg/injection, schedule: Q01DX012 (sc), vehicle: clinical formulation | dose: 107.0 mg/kg/injection, schedule: Q01DX004 (other), vehicle: water | dose: 107.0 mg/kg/injection, schedule: Q01DX006 (other), vehicle: water | dose: 107.0 mg/kg/injection, schedule: Q01DX008 (other), vehicle: water | dose: 107.0 mg/kg/injection, schedule: Q01DX012 (other), vehicle: water | dose: 107.0 mg/kg/injection, schedule: Q01DX016 (other), vehicle: water | dose: 107.0 mg/kg/injection, schedule: Q01DX032 (other), vehicle: water | dose: 131.0 mg/kg/injection, schedule: Q01DX005 (sc), vehicle: clinical formulation | dose: 131.0 mg/kg/injection, schedule: Q01DX012 (sc), vehicle: clinical formulation | dose: 134.0 mg/kg/injection, schedule: Q01DX004 (other), vehicle: water | dose: 134.0 mg/kg/injection, schedule: Q01DX006 (other), vehicle: water | dose: 134.0 mg/kg/injection, schedule: Q01DX008 (other), vehicle: water | dose: 134.0 mg/kg/injection, schedule: Q01DX012 (other), vehicle: water | dose: 134.0 mg/kg/injection, schedule: Q01DX016 (other), vehicle: water | dose: 134.0 mg/kg/injection, schedule: Q01DX032 (other), vehicle: water | dose: 164.0 mg/kg/injection, schedule: Q01DX005 (sc), vehicle: clinical formulation | dose: 164.0 mg/kg/injection, schedule: Q01DX012 (sc), vehicle: clinical formulation | dose: 168.0 mg/kg/injection, schedule: Q01DX001 (other), vehicle: water | dose: 168.0 mg/kg/injection, schedule: Q01DX002 (other), vehicle: water | dose: 168.0 mg/kg/injection, schedule: Q01DX004 (other), vehicle: water | dose: 168.0 mg/kg/injection, schedule: Q01DX006 (other), vehicle: water | dose: 168.0 mg/kg/injection, schedule: Q01DX008 (other), vehicle: water | dose: 168.0 mg/kg/injection, schedule: Q01DX012 (other), vehicle: water | dose: 168.0 mg/kg/injection, schedule: Q01DX016 (other), vehicle: water | dose: 200.0 mg/kg/injection, schedule: Q01DX001 (ip), vehicle: other | dose: 205.0 mg/kg/injection, schedule: Q01DX002 (sc), vehicle: clinical formulation | dose: 205.0 mg/kg/injection, schedule: Q01DX005 (sc), vehicle: clinical formulation | dose: 205.0 mg/kg/injection, schedule: Q01DX012 (sc), vehicle: clinical formulation | dose: 210.0 mg/kg/injection, schedule: Q01DX001 (other), vehicle: water | dose: 210.0 mg/kg/injection, schedule: Q01DX004 (other), vehicle: water | dose: 210.0 mg/kg/injection, schedule: Q01DX006 (other), vehicle: water | dose: 210.0 mg/kg/injection, schedule: Q01DX008 (other), vehicle: water | dose: 210.0 mg/kg/injection, schedule: Q01DX012 (other), vehicle: water | dose: 210.0 mg/kg/injection, schedule: Q01DX016 (other), vehicle: water | dose: 256.0 mg/kg/injection, schedule: Q01DX002 (sc), vehicle: clinical formulation | dose: 256.0 mg/kg/injection, schedule: Q01DX005 (sc), vehicle: clinical formulation | dose: 262.0 mg/kg/injection, schedule: Q01DX001 (other), vehicle: water | dose: 262.0 mg/kg/injection, schedule: Q01DX002 (other), vehicle: water | dose: 262.0 mg/kg/injection, schedule: Q01DX004 (other), vehicle: water | dose: 262.0 mg/kg/injection, schedule: Q01DX006 (other), vehicle: water | dose: 262.0 mg/kg/injection, schedule: Q01DX008 (other), vehicle: water | dose: 262.0 mg/kg/injection, schedule: Q01DX012 (other), vehicle: water | dose: 300.0 mg/kg/injection, schedule: Q01DX001 (ip), vehicle: other | dose: 320.0 mg/kg/injection, schedule: Q04DX002 (sc), vehicle: clinical formulation | dose: 328.0 mg/kg/injection, schedule: Q01DX001 (other), vehicle: water | dose: 328.0 mg/kg/injection, schedule: Q01DX002 (other), vehicle: water | dose: 328.0 mg/kg/injection, schedule: Q01DX004 (other), vehicle: water | dose: 328.0 mg/kg/injection, schedule: Q01DX006 (other), vehicle: water | dose: 328.0 mg/kg/injection, schedule: Q01DX008 (other), vehicle: water | dose: 400.0 mg/kg/injection, schedule: Q01DX001 (ip), vehicle: Klucel (hydroxypropylcellulose) (HPC) | dose: 400.0 mg/kg/injection, schedule: Q01DX001 (ip), vehicle: other | dose: 400.0 mg/kg/injection, schedule: Q01DX001 (sc), vehicle: clinical formulation | dose: 400.0 mg/kg/injection, schedule: Q01DX002 (sc), vehicle: clinical formulation | dose: 410.0 mg/kg/injection, schedule: Q01DX001 (other), vehicle: water | dose: 410.0 mg/kg/injection, schedule: Q01DX002 (other), vehicle: water | dose: 410.0 mg/kg/injection, schedule: Q01DX004 (other), vehicle: water | dose: 410.0 mg/kg/injection, schedule: Q01DX006 (other), vehicle: water | dose: 500.0 mg/kg/injection, schedule: Q01DX002 (sc), vehicle: clinical formulation | dose: 500.0 mg/kg/injection, schedule: Q04DX002 (sc), vehicle: clinical formulation | dose: 500.0 mg/kg/injection, schedule: Q10DX002 (sc), vehicle: clinical formulation | dose: 512.0 mg/kg/injection, schedule: Q01DX001 (other), vehicle: water | dose: 512.0 mg/kg/injection, schedule: Q01DX002 (other), vehicle: water | dose: 625.0 mg/kg/injection, schedule: Q01DX001 (sc), vehicle: clinical formulation | dose: 625.0 mg/kg/injection, schedule: Q04DX002 (sc), vehicle: clinical formulation | dose: 625.0 mg/kg/injection, schedule: Q10DX002 (sc), vehicle: clinical formulation | dose: 640.0 mg/kg/injection, schedule: Q01DX001 (other), vehicle: water | dose: 640.0 mg/kg/injection, schedule: Q01DX002 (other), vehicle: water | dose: 700.0 mg/kg/injection, schedule: Q01DX001 (ip), vehicle: other | dose: 781.0 mg/kg/injection, schedule: Q01DX001 (sc), vehicle: clinical formulation | dose: 781.0 mg/kg/injection, schedule: Q04DX002 (sc), vehicle: clinical formulation | dose: 781.0 mg/kg/injection, schedule: Q10DX002 (sc), vehicle: clinical formulation | dose: 800.0 mg/kg/injection, schedule: Q01DX001 (ip), vehicle: Klucel (hydroxypropylcellulose) (HPC) | dose: 800.0 mg/kg/injection, schedule: Q01DX001 (ip), vehicle: other | dose: 800.0 mg/kg/injection, schedule: Q01DX001 (other), vehicle: water | dose: 800.0 mg/kg/injection, schedule: Q01DX002 (other), vehicle: water | dose: 977.0 mg/kg/injection, schedule: Q01DX001 (sc), vehicle: clinical formulation | dose: 977.0 mg/kg/injection, schedule: Q10DX002 (sc), vehicle: clinical formulation | dose: 1000.0 mg/kg/injection, schedule: Q01DX001 (ip), vehicle: Klucel (hydroxypropylcellulose) (HPC) | dose: 1000.0 mg/kg/injection, schedule: Q01DX001 (other), vehicle: water | dose: 1000.0 mg/kg/injection, schedule: Q01DX002 (other), vehicle: water | dose: 1200.0 mg/kg/injection, schedule: Q01DX001 (ip), vehicle: other
8 of 8: dose: 320.0 mg/kg/injection, schedule: Q01DX002 (sc), vehicle: clinical formulation | dose: 320.0 mg/kg/injection, schedule: Q01DX005 (sc), vehicle: clinical formulation | dose: 400.0 mg/kg/injection, schedule: Q04DX002 (sc), vehicle: clinical formulation | dose: 500.0 mg/kg/injection, schedule: Q01DX001 (sc), vehicle: clinical formulation
4 of 4: dose: 500.0 mg/kg/injection, schedule: Q01DX001 (ip), vehicle: other
5 of 6: dose: 200.0 mg/kg/injection, schedule: Q01DX001 (ip), vehicle: Klucel (hydroxypropylcellulose) (HPC) | dose: 210.0 mg/kg/injection, schedule: Q01DX002 (other), vehicle: water | dose: 512.0 mg/kg/injection, schedule: Q01DX004 (other), vehicle: water | dose: 1600.0 mg/kg/injection, schedule: Q01DX001 (ip), vehicle: Klucel (hydroxypropylcellulose) (HPC)
3 of 6: dose: 1200.0 mg/kg/injection, schedule: Q01DX001 (ip), vehicle: Klucel (hydroxypropylcellulose) (HPC)
